Source: patent US20040077542A1 (University of Texas, published 2004)
These are yes or no findings as the source states them, for the method shown. For part of these data: In cells and extracts the contact can be indirect. Some binding calls cover weakened binding; strength is not graded here.

By UniProt entry, the sequences of proteins in these tests, tags left out. Residues count along the entry.
GST-fusion protein of the second BIR (baculoviral IAP repeat) motif of XIAP (P98170, residues 124-240): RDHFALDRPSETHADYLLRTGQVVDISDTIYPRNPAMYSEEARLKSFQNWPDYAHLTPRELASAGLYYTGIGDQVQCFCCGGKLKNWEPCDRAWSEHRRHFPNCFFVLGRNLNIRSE
third BIR domain of XIAP (P98170, residues 241-356): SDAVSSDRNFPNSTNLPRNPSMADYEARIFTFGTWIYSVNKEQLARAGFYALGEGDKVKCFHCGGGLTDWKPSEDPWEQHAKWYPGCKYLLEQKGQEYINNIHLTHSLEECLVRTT

biological target: GST-fusion protein of the second BIR (baculoviral IAP repeat) motif of XIAP (UniProt P98170); test: in vitro IAP (BIR) binding, GST pull-down (Example 9)

binding	Binder
binds	AVPIAQK [Smac-7: NH2-AVPIAQK-COOH]
binds	AVPIAQ [Smac-6: NH2-AVPIAQ-COOH]

Continued, binder first:

Binder	binding
AVPIA [Smac-5: NH2-AVPIA-COOH]	binds
AIAYF [Grim-5: NH2-AIAYF-COOH]	binds
AVAFYI [Reaper-6: NH2-AVAFYI-COOH]	binds
AVAFYL [Hid-6: NH2-AVAFYL-COOH]	binds
AVAFY [Reaper-5: NH2-AVAFY-COOH]	binds

biological target: third BIR domain of XIAP (UniProt P98170); test: as above

binding	Binder
binds	AVPIAQK [Smac-7: NH2-AVPIAQK-COOH]
binds	AVPIAQ [Smac-6: NH2-AVPIAQ-COOH]

More lines, now with the values behind:

Binder	binding
AVPIA [Smac-5: NH2-AVPIA-COOH]	binds
AIAYF [Grim-5: NH2-AIAYF-COOH]	binds
AVAFYI [Reaper-6: NH2-AVAFYI-COOH]	binds
AVAFYL [Hid-6: NH2-AVAFYL-COOH]	binds
AVAFY [Reaper-5: NH2-AVAFY-COOH]	binds

biological target: GST-fusion protein of the second BIR (baculoviral IAP repeat) motif of XIAP (UniProt P98170); test: fluorescence polarization, rhodamine-labeled peptoid, GST/BIR fusion (Example 10)

binding	Binder
binds	AVPIA [Smac-5: NH2-AVPIA-COOH]
binds	AVPIAQK [Smac-7: NH2-AVPIAQK-COOH]
binds	AVPIAQ [Smac-6: NH2-AVPIAQ-COOH]

biological target: biotinylated BIR domain (UniProt P98170); test: solid phase binding, 33P-labeled peptoid, biotinylated BIR on avidin plate (Example 11)

binding	Binder
binds	AVPIA [Smac-5: NH2-AVPIA-COOH]
binds	AVPIAQK [Smac-7: NH2-AVPIAQK-COOH]
binds	AVPIAQ [Smac-6: NH2-AVPIAQ-COOH]

biological target: GST-fusion protein of the second BIR (baculoviral IAP repeat) motif of XIAP (UniProt P98170); test: GST pull-down, radiolabeled peptide on GST-BIR2 glutathione resin (Example 9); IAP binding grade

binding	Binder
binds	AVPIAQK [Smac-7: NH2-AVPIAQK-COOH]
binds	AVPIAQ [Smac-6: NH2-AVPIAQ-COOH]

Continued, binder first:

Binder	binding
AVPIA [Smac-5: NH2-AVPIA-COOH]	binds
AIAYF [Grim-5: NH2-AIAYF-COOH]	binds
AVAFYI [Reaper-6: NH2-AVAFYI-COOH]	binds
AVAFYL [Hid-6: NH2-AVAFYL-COOH]	binds
AVAFY [Reaper-5: NH2-AVAFY-COOH]	binds
